# Record: PubChem BioAssay AID743121 (NCATS, 2013)
# Purpose: 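Knock-downs that sensitise breast cancer cells to camptothecin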 (primary screen)
# Cell system: MDA-MB-231 cells, a human breast cancer line
# Reagents: single siRNA against human genes, 20 nM siRNA (0.8 pmol per well)
# Time to read-out: 120 h (drug added 48 h after transfection, read 72 h later)
# Challenge: camptothecin 20 nM (about EC30) for 72 h; vehicle 0.1% DMSO in parallel plates
# Read-out: 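CellTiter-Glo ATP signal, scaled to control siRNA as percent viability; sensitisation given as log2 of untreated divided by camptothecin-treated viability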
# Direction: log2 vehicle/camptothecin viability: higher = stronger sensitisation to camptothecin; viability with camptothecin and viability without drug: higher = more viable cells
# Hit rule: 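Each gene scored by redundant siRNA activity (RSA) over its individual siRNA ratios; a gene is called active at p < 0.001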
# The deposit covers about 26,000 reagents; shown is an unselected part. Of all reagents, 167 (0.63%) are marked active. 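Calls are per gene from RSA p-values that are not deposited; an individual active-marked siRNA can sensitise only weakly.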 Entries without a mark were called inactive. Reagents against one gene are numbered here.
gene,siRNA no.,log2 vehicle/camptothecin viability,viability with camptothecin (% of control),viability without drug (% of control)
FBXO10,1,-0.534,95.7,66.1
FBXO10,2,-0.413,85,63.8
FBXO10,3,0.382,39,50.8
FBXO10,4,-0.442,11.9,8.74
ABCC1,1,-0.364,83.2,64.7
ABCC1,2,0.0888,46,48.9
ABCC1,3,-0.306,82.8,67
ABCC1,4,0.0621,82.3,85.9
PHKA1,1,-0.245,117,98.9
PHKA1,2,-0.338,51.3,40.6
PHKA1,3,-0.341,60.8,48
PHKA1,4,-0.374,71.2,54.9
CD163L1,1,-0.192,62,54.3
CD163L1,2,0.358,58.4,74.8
CD163L1,3,-0.0887,79.7,74.9
CD163L1,4,0.13,90.6,99.1
PPEF2,1,0.0889,73.3,77.9
PPEF2,2,-0.205,53.2,46.2
PPEF2,3,-0.134,95.8,87.3
PPEF2,4,-0.156,85.7,76.9
TGFBR1,1,0.27,56.4,68
TGFBR1,2,-0.306,103,82.9
TGFBR1,3,-0.341,84.6,66.8
TGFBR1,4,-0.171,56,49.7
ROR1,1,0.19,79.2,90.4
ROR1,2,-0.12,103,95.1
ROR1,3,-0.16,61.9,55.4
ROR1,4,1.05,47.3,98

3 of these entries, set out differently.
ROR1 #2 → log2 vehicle/camptothecin viability: -0.12; viability with camptothecin (% of control): 103; viability without drug (% of control): 95.1
ROR1 #3 → log2 vehicle/camptothecin viability: -0.16; viability with camptothecin (% of control): 61.9; viability without drug (% of control): 55.4
ROR1 #4 → log2 vehicle/camptothecin viability: 1.05; viability with camptothecin (% of control): 47.3; viability without drug (% of control): 98
